Assays:
[1] = general procedure: Fmoc solid-phase peptide synthesis; D(Boc)-Wang resin; TBTU/DIPEA; propiolic acid coupled with HATU without DIPEA; settings: whole synthesis, scale 1 g resin
[2] = general procedure: Fmoc solid-phase peptide synthesis; K(Boc)-Rink amide resin; TBTU/DIPEA; propiolic acid coupled with HATU without DIPEA; settings: whole synthesis, scale 2 g resin

Row | Substance | isolated mass [1] | isolated mass [2]
1 | LIVAGD-OH | 107.2 mg | 
2 | LIVAGK-NH2 (N-acetyl, C-amide, propiolic acid alkyne functionalization) |  | 384 mg

From US10117946B2 (Agency for Science, Technology and Research, priority 2012, dated 2018)
